The values below come from patent US4829051A (Vega Laboratories, Inc., priority 1984, dated 1989).

The data set is described as follows: general procedure: Boc solid-phase peptide synthesis. The note with it: late stage modification step.

Take “1-desamino-[2-Phe, 8-Lys-N^ε (Gly)]-vasopressin”: the step yield is reported as 54.5%.
